Read-outs that look alike come from different tables or passages of the source.
How the values were obtained:
[1] = NMRI, mouse
[2] = Brain slice method, unbound volume of distribution in the brain (rat); format: in vitro ADME; settings: SD rat brain slices, 5 h incubation at 37°C; mean (standard deviation)

SMILES: CN1C(=O)CN=C(c2ccccc2)c2cc(Cl)ccc21 [Diazepam]
- Vu,brain [1]: 17.1 (2.3) ml·g brain^-1
- Vu,brain [2]: 17.8 (1.1) ml·g brain^-1
